# In PubChem BioAssay AID1347076 (National Center for Advancing Translational Sciences (NCATS), 2019):
# Screen size: about 400,000 compounds; about 13,000 (3.2%) were called active. The shares of active, inactive and inconclusive entries below differ from those in the screen. Calls follow the shape of the dose curve; as a rule, active = well fitted cell-killing curve with a large enough effect; inconclusive = small, poorly fitted or top-dose-only effect, or effect the other way; inactive = flat fitted curve, though single readings scatter. Potencies beside an inconclusive call are fits to weak or partial responses and may not hold up.
# Assay: qHTS assay for MDR1-selective chemotherapeutics: Primary screen using the drug-selected MDR subline cells KB-V1; also: nearly all actives have a fitted effect of over 60% in size
# Settings: KB-V1 MDR cells viability, CellTiter-Glo, 72 h; series mostly up to 46.1 µM
# Procedure, shortened: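 Cells of the MDR subline KB-V1 are plated, dosed with compound at multiple concentrations, and incubated 72 h at 37 degrees C; CellTiter-Glo is then added and luminescence read after 10 min.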
# Potency is read from the fitted curve at half-maximal effect.
row,SMILES,Potency
1,O=C(CCS(=O)(=O)c1ccc(Cl)cc1)Nc1cccc(S(=O)(=O)N2CCCCCC2)c1,active: 20.6 µM
2,O=C(c1ccc(S(=O)(=O)Cc2cc(F)ccc2F)c([N+](=O)[O-])c1)N1CCCCC1,"inconclusive: 11.6 µM [cytotoxic, partial curve]"
3,CC1=C/C(=C\c2ccc(N(C)C)cc2)c2ccccc21,inactive
4,Cc1ccc(C)c(NC(=O)C2CCCN(S(=O)(=O)c3cccnc3)C2)c1 (stereo not given),"inconclusive: 23.1 µM [cytotoxic, single point]"
5,CN(C(=O)CSc1nc2ccccc2n1Cc1cccc(C(F)(F)F)c1)c1ccccc1,inactive
6,Cc1cc(S(=O)(=O)Nc2cccc([N+](=O)[O-])c2)c(C)s1,inactive
7,CC(C)CSc1oc(-c2ccco2)nc1S(=O)(=O)c1ccc(Br)cc1,"inconclusive: 14.6 µM [cytotoxic, single point]"
8,CC1=Nc2ccc(C)c3nc(C)cc(c23)N1c1ccc(C)cc1,"inconclusive: 2.06 µM [cytotoxic, partial curve, poor fit]"
9,CCOC(=O)[C@@H](NC(=O)CC[C@H]1O[C@@H](n2ccc(=O)[nH]c2=O)[C@H](O)[C@@H]1O)C(C)C,inactive
10,CCOC(=O)c1c(NC(=O)Cn2nnc3ccccc32)sc2c1CCC(C)C2 (stereo not given),"inconclusive: 16.4 µM [cytotoxic, partial curve]"
11,COc1cccc(-c2cc(C(=O)Nc3nc4ccccc4s3)c3ccccc3n2)c1,active: 20.6 µM
12,COc1cccc(NC(=O)CCN2C(=O)C3CC=CCC3C2=O)c1 (stereo not given),inactive
13,CS(=O)(=O)c1ccccc1-c1nc(-c2cc(C(F)(F)F)cc(C(F)(F)F)c2)no1,inactive
14,CCOC(=O)c1c(NS(=O)(=O)Cc2ccccc2)sc2c1CCCC2,"inconclusive: 3.66 µM [rising, partial curve, poor fit]"
15,CN(c1ccccc1)C1CCCCC1NS(=O)(=O)c1ccc(Cl)cc1 (stereo not given),"inconclusive: 16.4 µM [cytotoxic, single point]"
16,CC(C)(C)c1ccccc1OCC(=O)NCCCn1ccnc1,"inconclusive: 20.6 µM [cytotoxic, single point]"
17,CS(=O)(=O)N1CCC(Oc2ccccc2C(=O)N2CCCCC2CO)CC1 (stereo not given),"inconclusive: 20.6 µM [rising, single point]"
18,CCOC(=O)c1nn(-c2cccc(C)c2)cc1C(=O)c1ccccc1,active: 14.6 µM
19,COc1cc(OC)c2c(-c3cccc(-c4cccc(N)c4)c3)cc(=O)oc2c1,active: 7.31 µM
20,O=C(CSc1nnc(NC(=O)c2ccccc2F)s1)Nc1ccccc1F,"inconclusive: 16.4 µM [cytotoxic, partial curve, poor fit]"
21,COc1ccc(NC(=O)C(=O)NCC(c2ccco2)N2CCc3ccccc32)cc1 (stereo not given),"inconclusive: 0.58 µM [cytotoxic, full curve, poor fit]"
22,CCOC(=O)c1ccc(-c2c(C)cc3oc(=O)cc(-c4ccccc4)c3c2C)cc1,inactive
23,CCOC(=O)c1c(-c2ccc(C)cc2)csc1NC(=O)CCSc1nnc2ccccn12,active: 16.4 µM
24,O=C(NCc1cccc2ccccc12)c1cccs1,inactive
25,CSc1nc(N)nc2c1ncn2CC(=O)N1CCN(c2ccccn2)CC1,"inconclusive: 29.1 µM [rising, single point]"

row,SMILES,Potency
1,CN(c1cccc(NC(=O)COc2ccccc2)c1)S(C)(=O)=O,"inconclusive: 14.6 µM [cytotoxic, single point]"
2,Cc1ccc2c(c1)c1ncnc(N3CCN(c4ccccc4)CC3)c1n2C,"inconclusive: 25.9 µM [cytotoxic, single point]"
3,Cc1ccc(OCCNC(=O)c2cncc(Br)c2)cc1C,"inconclusive: 32.6 µM [cytotoxic, partial curve, poor fit]"
4,COc1ccc(NC(=O)Nc2ccc(F)cc2F)cc1,inactive
5,C=C1/C=C(\C)C(C)(O)CC(O)CC(=O)C(O)C(O)C(C)CC(C)OC(=O)/C(C)=C/CC/C=C/C(OC)C(O)CC(C)C1 (stereo not given),inactive
6,CCOc1ccc(NC(=O)Nc2cc(C)ccc2F)cc1,active: 13 µM
7,COc1ccc(N2CCN(C3CCCN(C(=O)CSC)C3)CC2)cc1 (stereo not given),inactive
8,CCOc1ccc(NC(=S)Nc2cc(OC)c(Cl)cc2OC)cc1,active: 16.4 µM
9,COc1ccccc1NC(=O)c1cccc(S(=O)(=O)N2CCN(c3ccccc3)CC2)c1,"inconclusive: 0.82 µM [rising, full curve]"
10,COc1ccccc1CNC(=O)c1cc2ccccc2o1,"inconclusive: 0.411 µM [rising, full curve, poor fit]"
11,OCCCCc1nccc2c1[nH]c1ccccc12,inactive
12,COc1ccc(CC(=O)n2[nH]c(=O)ccc2=O)cc1OC,"inconclusive: 2.31 µM [rising, partial curve, poor fit]"
13,O=C(c1ccc(Cl)c(S(=O)(=O)N2CCCCCC2)c1)N1CCCCC1,inactive
14,O=C(c1cc(COc2ccc(F)cc2Cl)on1)N1CCC(c2ccncc2)CC1,active: 4.11 µM
15,O=c1oc2cc(O)ccc2cc1-c1nc2ccccc2o1,inactive
16,COc1ccc(CN2CCOCCOCCN(Cc3ccc(OC)cc3)CCOCCOCC2)cc1,"inconclusive: 23.1 µM [cytotoxic, single point]"
17,CNc1ccc(Oc2nc([N+](=O)[O-])nn2C)cc1,inactive
18,COc1cccc(C(=O)NC(C)c2cccc3ccccc23)c1OC (stereo not given),"inconclusive: 1.3 µM [cytotoxic, full curve, poor fit]"
19,CCn1c(=O)cc(OCC(=O)NCc2ccco2)c2ccccc21,"inconclusive: 16.4 µM [cytotoxic, partial curve]"
20,COc1ccc(CNC(=O)c2cc(C)nc3c2c(C)nn3-c2cccc(Cl)c2C)cc1,inactive
21,Cc1ccc(-c2nc3ccccc3s2)cc1S(=O)(=O)N1CCCC1,inactive
22,COc1cccc(Nc2nc(Nc3ccc(Cl)c(C(=O)O)c3)nc(C)c2[N+](=O)[O-])c1,inactive
23,CCc1ccc(NC(=O)C(C)OC(=O)c2cc(=O)[nH]c3ccc(S(=O)(=O)Nc4ccc(F)cc4)cc23)cc1 (stereo not given),"inconclusive: 2.31 µM [rising, partial curve, poor fit]"
24,COC(=O)c1ccc(COc2ccc(/C=N/NC(N)=S)cc2)o1,"inconclusive: 11.6 µM [cytotoxic, partial curve]"
25,CCCCOC1NC(=O)NC(=O)C1(F)C(=O)OCC (stereo not given),inactive

# Structures shown so far that contain a CF3 group, in the order listed:
row,SMILES,Potency
5,CN(C(=O)CSc1nc2ccccc2n1Cc1cccc(C(F)(F)F)c1)c1ccccc1,inactive
13,CS(=O)(=O)c1ccccc1-c1nc(-c2cc(C(F)(F)F)cc(C(F)(F)F)c2)no1,inactive

# Remaining list, next part.

row,SMILES,Potency
1,COCc1nnc(SCC(=O)NCc2ccccc2)n1-c1ccccc1,inactive
2,Cc1ccc(C(=O)NNC(=O)CCn2nnc3ccccc32)cc1,"inconclusive: 0.184 µM [rising, full curve, poor fit]"
3,O=C(Nc1ccc(O)c(-c2nc3ccccc3o2)c1)C1(c2ccc(Br)cc2)CCCC1,"inconclusive: 14.6 µM [cytotoxic, partial curve, poor fit]"
4,COc1ccc(-c2nc3n(n2)C(c2ccccc2)C2=C(CCCC2=O)N3)cc1OC (stereo not given),inactive
5,COC(=O)c1ccc(NC(=O)CSc2n[nH]c(CC(C)C)n2)cc1,"inconclusive: 16.4 µM [rising, single point]"
6,CCOC(=O)c1c(C)n(C(=O)c2ccco2)c(=O)n1C(=O)c1ccco1,inactive
7,COc1ccc(NC(=O)C[C@H]2C(=O)N(Cc3ccccc3)C[C@@H]2CSC)cc1,"inconclusive: 9.2 µM [cytotoxic, partial curve, poor fit]"
8,Cc1nc2ccccc2nc1OCc1cccc(Cl)c1,inactive
9,CC1CCN(CC(C)OC(=O)c2ccc3c(c2)OCCO3)CC1 (stereo not given),"inconclusive: 0.013 µM [rising, full curve]"
10,CC(C)c1ccc(NC(=S)NN(c2ccccc2)c2ccccc2)cc1,active: 20.6 µM
11,COc1c(Cl)cnn(-c2ccc(C)cc2)c1=O,inactive
12,Cc1c(C(=O)NCc2ccc(C(F)(F)F)cc2)sc(=O)n1Cc1cccc(F)c1,"inconclusive: 16.4 µM [cytotoxic, partial curve]"
13,O=C(c1[nH]ncc1-c1cccc(Br)c1)C1CO1 (stereo not given),"inconclusive: 20.6 µM [cytotoxic, single point]"
14,COc1ccc2[nH]c3c(c2c1)CCN1C(=O)C(CC(=O)NCCN2CCOCC2)C[C@H](C(=O)N(C(C)C)C(C)C)[C@@]31C (stereo not given in full),inactive
15,CC1C(=O)N(Cc2cn(Cc3ccco3)nn2)CCS(=O)(=O)N1Cc1ccc(-c2ccc(F)cc2)cc1 (stereo not given),inactive
16,COC(=O)c1sccc1NC(=O)c1csc2c1CCCC2,active: 14.6 µM
17,CCCN(Cc1ccccc1)C(=O)Nc1ccc2c(c1)nnn2C,"inconclusive: 18.4 µM [cytotoxic, single point]"
18,CCc1ccccc1NC(=O)COc1cccc(-n2cnnn2)c1,"inconclusive: 25.9 µM [cytotoxic, single point]"
19,Cc1cc(NC(=O)CSc2nnc3ccc(-c4ccccc4)nn23)no1,inactive
20,O=C(Nc1ccccc1-c1ccccc1)C12CC3CC(CC(C3)C1)C2,"inconclusive: 16.4 µM [cytotoxic, single point]"
21,Cc1ccccc1OCCCc1c(C)n[nH]c1C,"inconclusive: 16.4 µM [cytotoxic, single point]"
22,COc1ccc(C)cc1N(CC(=O)N/N=C/c1ccc2c(c1)OCO2)S(C)(=O)=O,inactive
23,OCC[C@@H]1C[C@H](O)[C@@H](O)[C@@]2(OCc3cc(Cl)ccc32)O1,"inconclusive: 13 µM [rising, partial curve, poor fit]"
24,FC(F)(F)c1cc(Cl)c2nc(-c3ccccc3)cn2c1,inactive
25,C=C(C)c1cccc(C(C)(C)NC(=O)NCC2CCCO2)c1 (stereo not given),"inconclusive: 13 µM [rising, partial curve, poor fit]"
